Assay results from PMC6694439.
No constants are given. Whether binding was seen depends on the method and setting. Binding seen in cells or lysates may run through a third protein. Some entries that bind do so weakly or less than the wild type.

Target: T1, vascular endothelial-cadherin (VE-cadherin) (human (endogenous in EAhy926)) (UniProt P33151)
T1 sequence: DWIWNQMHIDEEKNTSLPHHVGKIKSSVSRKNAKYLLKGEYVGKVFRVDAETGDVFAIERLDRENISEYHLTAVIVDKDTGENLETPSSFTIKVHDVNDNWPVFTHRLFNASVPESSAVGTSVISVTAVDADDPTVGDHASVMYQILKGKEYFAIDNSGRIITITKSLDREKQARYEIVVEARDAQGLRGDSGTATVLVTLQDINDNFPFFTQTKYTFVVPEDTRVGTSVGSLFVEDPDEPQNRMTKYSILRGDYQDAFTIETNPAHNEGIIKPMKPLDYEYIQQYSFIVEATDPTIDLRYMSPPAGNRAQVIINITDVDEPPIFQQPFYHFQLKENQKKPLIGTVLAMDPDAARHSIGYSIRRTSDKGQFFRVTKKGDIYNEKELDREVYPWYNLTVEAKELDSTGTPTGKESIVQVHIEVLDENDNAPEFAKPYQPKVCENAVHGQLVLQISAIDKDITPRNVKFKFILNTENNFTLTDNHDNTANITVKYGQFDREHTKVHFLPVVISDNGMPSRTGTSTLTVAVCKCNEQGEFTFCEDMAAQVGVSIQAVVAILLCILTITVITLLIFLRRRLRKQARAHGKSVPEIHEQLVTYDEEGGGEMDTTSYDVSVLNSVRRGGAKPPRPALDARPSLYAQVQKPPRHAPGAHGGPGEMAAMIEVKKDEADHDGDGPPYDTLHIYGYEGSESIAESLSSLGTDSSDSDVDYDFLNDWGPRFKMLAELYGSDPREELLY
Experiment: co-IP; EAhy926 monolayers, control or stimulated with IL-8 for 3 min, with or without L-NMA pretreatment; immunoprecipitated with VE-cadherin antibody and probed for p120

B1: p120 (protein, UniProt O60716 1-968)
chain: MDDSEVESTASILASVKEQEAQFEKLTRALEEERRHVSAQLERVRVSPQDANPLMANGTLTRRHQNGRFVGDADLERQKFSDLKLNGPQDHSHLLYSTIPRMQEPGQIVETYTEEDPEGAMSVVSVETSDDGTTRRTETTVKKVVKTVTTRTVQPVAMGPDGLPVDASSVSNNYIQTLGRDFRKNGNGGPGPYVGQAGTATLPRNFHYPPDGYSRHYEDGYPGGSDNYGSLSRVTRIEERYRPSMEGYRAPSRQDVYGPQPQVRVGGSSVDLHRFHPEPYGLEDDQRSMGYDDLDYGMMSDYGTARRTGTPSDPRRRLRSYEDMIGEEVPSDQYYWAPLAQHERGSLASLDSLRKGGPPPPNWRQPELPEVIAMLGFRLDAVKSNAAAYLQHLCYRNDKVKTDVRKLKGIPVLVGLLDHPKKEVHLGACGALKNISFGRDQDNKIAIKNCDGVPALVRLLRKARDMDLTEVITGTLWNLSSHDSIKMEIVDHALHALTDEVIIPHSGWEREPNEDCKPRHIEWESVLTNTAGCLRNVSSERSEARRKLRECDGLVDALIFIVQAEIGQKDSDSKLVENCVCLLRNLSYQVHREIPQAERYQEAAPNVANNTGPHAASCFGAKKGKDEWFSRGKKPIEDPANDTVDFPKRTSPARGYELLFQPEVVRIYISLLKESKTPAILEASAGAIQNLCAGRWTYGRYIRSALRQEKALSAIADLLTNEHERVVKAASGALRNLAVDARNKELIGKHAIPNLVKNLPGGQQNSSWNFSEDTVISILNTINEVIAENLEAAKKLRETQGIEKLVLINKSGNRSEKEVRAAALVLQTIWGYKELRKPLEKEGWKKSDFQVNLNNASRSQSSHSYDDSTLPLIDRNQKSDKKPDREEIQMSNMGSNTKSLDNNYSTPNERGDHNRTLDRSGDLGDMEPLKGTTPLMQDEGQESLEEELDVLVLDDEGGQVSYPSMQKI
- binding: binds
